Data: PubChem BioAssay AID1307 (SRMLSC, 2008)
The campaign covered roughly 1,200 compounds. Fewer than 10 were called active.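 How the source made its calls: active means inhibition reaching a set limit at one or more tested concentrations; inactive means inhibition under that limit at every dose.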 This is one part of the list. Measured potencies and affinities stand elsewhere.

test: yeast RAM network inhibitors, dose response, S. cerevisiae (AID 1307);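 further: 0% = DMSO vehicle wells and 100% = 10 µM 1-NA-PP1 control; higher inhibition means more yeast growth since RAM block rescues cells from 5-FOA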; details: S. cerevisiae RAM network URA3 reporter, 5-FOA growth OD615, active compounds read high, yeast express analog-sensitive mutant Cbk1 kinase; at 100 µM unless noted

Max inhibition, inactive:
O=C(CC12CC3CC(CC(C3)C1)C2)NC(=S)NCc1ccco1 5.22% [at 50 µM]
CCCC(C(=O)n1nc(C)cc1C)C(NS(=O)(=O)c1ccc(C)cc1)c1ccccc1 (stereo unspecified) 3.05% [at 6.25 µM]
CCCCc1ccc(N=N/C(C(=O)Nc2ccccc2OC)=C(/C)O)cc1 4.87% [at 50 µM]
Cc1ccccc1Oc1ccc(-c2nc(N)nc(N)n2)cc1 3.9%
CCCCc1ccc(-c2csc(/C(C#N)=C/c3ccc(C)o3)n2)cc1 4.24%
CC(C)CCC(C)N=Cc1c(O)n(Cc2ccccc2)c(=O)c2ccccc12 (stereo unspecified) 10.6%
CCOC(=O)c1cnc(SC)nc1Nc1cccc(F)c1 4.37%
O=C(COc1ccccc1Cl)Nc1cc(Cl)ccc1Oc1ccccc1 4.01% [at 0.196 µM]
CCOC(=O)N1CCC(N(CCN(C)C)C(=S)Nc2cccc(SC)c2)CC1 2.41% [at 0.782 µM]
FC(F)(F)c1cccc(NC(=S)NC(c2ccccc2)c2ccccc2)c1 6.93%
CCCCn1c(O)c(/C=C/C=C/C=Nc2ccccc2)sc1=S 9.68%
COc1ccnc(N2CCN(c3ccc(Cl)cc3)CC2)c1C#N 5.35% [at 50 µM]
O=C(NCCOc1ccccc1)c1cc(C(=O)NCCOc2ccccc2)cc([N+](=O)[O-])c1 2.97% [at 3.125 µM]
CC(OC(=O)c1ccccc1NS(=O)(=O)c1cccc(C(F)(F)F)c1)C(=O)N(C)Cc1ccccc1 (stereo unspecified) 3.04% [at 50 µM]
Cc1ccc(NC2=C(Cl)C(=O)OC2OC(=O)c2ccccc2C)cc1 (stereo unspecified) 3.61% [at 50 µM]
COCCNc1nc(SCc2ccccc2)nc2sc3c(c12)CCC3 2.54%
COc1ccc(C(=O)Nc2cc(OCc3ccccc3)c(Cl)cc2Cl)cc1 3.51%
CC(C)(C)OC(=O)COc1cc(O)c2c(=O)cc(-c3ccccc3)oc2c1 2.44% [at 1.563 µM]
COc1ccc(Nc2nc3c(C)cccc3cc2C#N)c(OC)c1 5.99% [at 25 µM]
CCOC(=O)C1=C(O)/C(=C/c2ccc(OCC(=O)O)c(OC)c2)SC1=Nc1ccc(OC)cc1 12.5%
Cc1ccccc1NC(=S)NCCC(c1ccccc1)c1ccccc1 5.53%
CCCC[C@@H]1C[C@H]1[C@@H](NC(=O)c1ccccc1)c1ccccc1C(F)(F)F 3.06%
COc1ccc(OC)c(C2C3=C(N=c4s/c(=C\c5cccc(O)c5)c(=O)n42)c2ccccc2CC3)c1 (stereo unspecified) 10.2%
CCCSc1nc(SCC(=O)NCc2ccccc2)c2c3c(sc2n1)COC(C)(CC)C3 (stereo unspecified) 4.24%
CCCCOc1ccc(/C=C2/Sc3ccccc3C2=O)cc1 4.33%
CCOC(=O)/C(=N/Nc1ccccc1)c1csc(Nc2ccccc2)n1 2.72%
COC(=O)c1sccc1-c1ccc(/C=N/OCc2c(Cl)cccc2Cl)o1 4.32% [at 3.125 µM]
C=CCn1c(SCCC)nc2sc3c(c2c1=O)CCc1ccccc1-3 2.79% [at 50 µM]
COc1ccc(Cc2nc(C(=O)Nc3ccc(F)cc3)cs2)cc1 2.74% [at 6.25 µM]
O=C(/C=C/c1ccc(-c2ccccc2[N+](=O)[O-])o1)c1ccc(Br)cc1 2.29% [at 12.5 µM]
COC(=O)Cc1ccc(N(Cc2ccccc2F)S(=O)(=O)c2ccc(C)cc2)cc1 3.54%
Cc1cccc(COCC(Cc2ccccc2)N2CCN(C(=O)c3ccc(C(F)(F)F)cc3)CCC2=O)c1 (stereo unspecified) 3.28% [at 0.782 µM]
O=C(COC(=O)c1ccccc1C(=O)c1ccccc1)Nc1ccc(SC(F)F)cc1 1.63% [at 1.563 µM]
CNC(=S)N1N=C(c2ccc(C)cc2)CC1c1ccc(Br)cc1 (stereo unspecified) 1.58% [at 0.196 µM]
CCOC(=O)c1ccccc1NC(=O)c1c(O)c2ccccc2n(CC)c1=O 1.76%
Cc1cccc(-n2c(SCC(=O)Nc3cccc(S(=O)(=O)NC4=NCCCCC4)c3)nc3ccccc3c2=O)c1C 6.73%
CC(C)=CCC/C(C)=C/Cc1c(O)ccc(C(=O)/C=C/c2ccc(O)cc2)c1O 5.39%
CCCCNS(=O)(=O)c1ccc(NS(=O)(=O)c2c(C)cc(C)cc2C)cc1 2.98% [at 0.196 µM]
CCCSc1nc(NCc2ccco2)c2c3c(sc2n1)COC(C)(C)C3 3.51%
Cc1ccc(S(=O)(=O)NCCC(c2ccccc2)c2ccco2)cc1 (stereo unspecified) 2.13%
O=C(CSCc1ccc(Br)cc1)Nc1ccc(S(=O)(=O)N2CCCCCC2)cc1 3.55% [at 1.563 µM]
CC(C)C[C@H](NC(=O)c1nc[nH]c1C(=O)NCc1ccccc1)C(=O)OCc1ccccc1 8.62%
Cc1ccccc1NS(=O)(=O)c1cc(C(=O)NCCSC2CCCCC2)ccc1C 4.22%
Cc1ccc(OCCn2cc(/C=C(\C#N)C(=O)NCC3CCCO3)c3ccccc32)cc1C (stereo unspecified) 8.12%
COc1ccccc1OCCNS(=O)(=O)c1ccc2oc3ccccc3c2c1 3.16% [at 50 µM]
C/C(=N\OC(=O)c1ccc(Cl)cc1)c1sc(-c2ccccc2)nc1C 4.25%
CN(C)c1oc(-c2ccc(OCc3ccccc3)cc2)nc1C#N 3.6% [at 50 µM]
O=C1Nc2ccccc2/C1=N\N=C\C1=C(N2CCOCC2)C(=C\c2ccccc2)/CC1 19.6%
CCC(CC)COC(=O)C(C#N)c1nc2ccccc2nc1N1CCOCC1 (stereo unspecified) 5.41%
CCN(c1ccccc1)S(=O)(=O)c1ccc(NCC2COc3ccccc3O2)nc1 (stereo unspecified) 6.97%
Cc1ccc(CSc2nc3sc(C)c(C)c3c(=O)n2Cc2ccco2)cc1 4.96%
COC(=O)c1ccc(OC)c(CSc2nnc(-c3ccc(C(C)(C)C)cc3)o2)c1 5.66%
Cc1ccccc1CSCCNC(=O)c1ccc(N(C)S(=O)(=O)c2ccccc2)cc1 3.88%
Cc1ccc(-n2c(O)c(/C=N/c3ncn[nH]3)c3ccccc3c2=O)cc1 10.6%
CC(C)c1ccc(/C=C(\c2nc3ccccc3[nH]2)S(=O)(=O)c2ccccc2)cc1 0.48% [at 12.5 µM]
CCOC(=O)c1c(C)[nH]c(N=Nc2ccccc2C)c1C 3.75%
CSc1ccc(Cl)c(C(=O)NCCOc2cc(C(C)C)ccc2C)c1 4.59%
Cc1cc(C)c(OCCNC(=O)c2ccccc2Sc2ccccc2C#N)c(C)c1 3.53% [at 50 µM]
Cc1ccc(-c2noc(CCC(=O)N3CCN(c4cccc(C(F)(F)F)c4)CC3)n2)cc1 4.28% [at 0.782 µM]
C=CCn1c(SCc2csc(C)n2)nc2sc3c(c2c1=O)CCCCC3 3.66%
COc1cc(OC)cc(-c2nnc(SCc3cccc(C(=O)O)c3)o2)c1 3.7%
CCc1cc2c(=O)n(Cc3ccco3)c(SCc3c(C)noc3C)nc2s1 4.93% [at 50 µM]
Cc1ccc(/C=C/C(=O)OCC(=O)Nc2ccccc2Sc2ccccc2)cc1 4.49% [at 50 µM]
O=C(C1CC1)N(Cc1ccco1)c1nc(-c2ccccc2)cs1 1.18%
O=C(CCC(=O)OCCCC(F)(F)C(F)(F)F)Nc1ccc(Cl)cc1Cl 2.26% [at 25 µM]
CCCCOC(=O)c1ccc(NC(=O)c2c(Cl)ccc(Cl)c2OC)cc1 2.55% [setting not given]
CSCCC(NS(=O)(=O)c1ccc2ccccc2c1)C(=O)OCC(=O)c1ccc(C(C)C)cc1 (stereo unspecified) 4.33%
CCSC1=N/C(=C\c2ccc(-c3ccccc3[N+](=O)[O-])o2)C(=O)S1 5.47% [at 25 µM]
COCCn1c(=NC(=O)c2sc3ccccc3c2Cl)sc2cc(S(N)(=O)=O)ccc21 4.98% [at 50 µM]
CCOC(=O)/C(C#N)=C(C)/C=C1\Sc2ccccc2N1CC 5.66%
S=C(NCCC(c1ccccc1)c1ccccc1)Nc1cccc(Cl)c1 6.71%
COCCCNC(=O)c1ccc(Cn2c(=O)c3ccccc3n(Cc3ccc(C)cc3)c2=O)cc1 1.8% [at 25 µM]
CCCCCCOc1ccc(NC(=O)CC2C(=O)N(CC)C(=S)N2Cc2ccco2)cc1 (stereo unspecified) 4.43% [at 25 µM]
COc1cccc(C(=O)C2CN(c3ccccc3)CC2c2ccc(Cl)cc2)c1 (stereo unspecified) 5.04% [at 50 µM]
CCOC(=O)C1=C(NC(=S)NC(=O)c2ccccc2)c2ccccc2CC1C(C)C (stereo unspecified) 1.65%
CC1CCN(C(=S)c2ccc(-c3ccc(Cl)cc3Cl)o2)CC1 6.95% [at 50 µM]
CCOCCSc1nc2c(c(-c3cccs3)c1C#N)CC/C2=C/c1cccs1 5.76% [at 0.196 µM]
O=C(Nc1ccccc1Cc1ccccc1)c1oc2ccccc2c1COc1ccccc1 3.76%
O=C(NCc1ccccc1)[C@H]1C[C@@H]1[C@H](NP(=O)(c1ccccc1)c1ccccc1)c1ccccc1 5.67%
Cc1ccc2sc(NC(=O)c3ccc(N4C(=O)CCC4=O)cc3)nc2c1C 9.33%
CCOC(=O)/C(=C/c1ccc(N2CCC(c3ccccc3)=N2)cc1)C(C)=O 3.75%

Among those listed so far, two have a tert-butyl group.
Max inhibition, inactive:
CC(C)(C)OC(=O)COc1cc(O)c2c(=O)cc(-c3ccccc3)oc2c1 2.44% [at 1.563 µM]
COC(=O)c1ccc(OC)c(CSc2nnc(-c3ccc(C(C)(C)C)cc3)o2)c1 5.66%
